In all, about 320,000 compounds went through this assay and about 22,000 (6.9%) were called active. Inconclusive means that the source gave no clear call. Such entries were picked first, then a sample of the others. The call rests on the fitted dose curve; in most records, active means well fitted inhibition curve with a large enough effect; inconclusive means small, poorly fitted or top-dose-only effect, or another doubt; inactive means no such curve, though single readings can be large or run the other way. Potencies of inconclusive entries are doubtful fits and often do not repeat.
assay: Primary qHTS for delayed death inhibitors of the malarial parasite plastid, 96 hour incubation; settings: P. falciparum luciferase reporter growth; series mostly up to 28.7 µM
Summary of the method: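 96 h incubation, 37 C, 5% CO2, of luciferase-reporter P. falciparum-infected RBCs (2% hematocrit, 0.05% parasitemia final) with test compounds; endpoint luminescence.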
Potency means the concentration at half of the fitted maximal effect.

SMILES	Potency
CCCN1C(=O)/C(=C/c2nc3ccccc3c(=O)[nH]2)c2cc(C)ccc21	inconclusive: 9.28 µM [inhibitor, single point]
O=C(NC(=S)Nc1ccccn1)c1cccc([N+](=O)[O-])c1	inactive
CCc1nn(CC(=O)N2CCC3(CC2)OCCO3)c(=O)c2cc3ccccc3n12	inconclusive: 0.828 µM [inhibitor, partial curve, poor fit]
Cc1ccc(C(=O)Nc2cccc(NC(=O)c3ccc(C)o3)n2)o1	inconclusive: 11.7 µM [inhibitor, single point]
CC1CCN(c2c(NCc3ccc(C(=O)N4CCN(C5CCCCC5)CC4)cc3)c(=O)c2=O)CC1	inconclusive: 18.5 µM [inhibitor, single point]
Cc1ccc(-c2nnc(SCC(=O)N3CCN(c4ccccc4)CC3)o2)cc1	inconclusive: 18.5 µM [inhibitor, single point]
O=C(CCCn1c(SCC(=O)c2ccccc2)nc2ccccc2c1=O)NCC1CCCO1 (stereo unspecified)	inconclusive: 4.15 µM [inhibitor, partial curve, poor fit]
COc1ccc(NC(=S)Nc2nc(CC(=O)Nc3ccccc3OC)cs2)cc1	inactive
O=C(CSc1nnc(Cc2cc(=O)[nH]c(=O)[nH]2)n1-c1ccccc1)N1CCCc2ccccc21	inactive
C#CCOCCOCCOCCNc1nc(N2CCN(C(=O)CCCCCCCCCCNC(=O)[C@H](CCCCN)n3cc(CCCC(=O)O)nn3)CC2)nc(N2CCN(C(=O)CCCCCCCCCCNC(=O)[C@H](CCCCN)n3cc(CCCC(=O)O)nn3)CC2)n1	inconclusive: 11.7 µM [inhibitor, single point]
Cc1ccc(S(=O)(=O)N(C)c2ccc(C(=O)N3CCOCC3)cc2)cc1	inactive
COc1ccc2c(c1)CCc1c(C(=O)N3CCCC3)noc1-2	inconclusive: 0.0029 µM [inhibitor, full curve, poor fit]
Cc1nc(NC(=O)/C=C/c2ccccc2)sc1C(=O)Nc1cccc(Cl)c1	inconclusive: 0.0657 µM [inhibitor, full curve, poor fit]
CCOc1ccc(CNC(=O)CCn2c(=O)oc3ccccc32)cc1	inconclusive: 16.5 µM [inhibitor, single point]
Cn1c(N)c(C(=O)COC(=O)COc2ccc(Cl)cc2)c(=O)n(C)c1=O	inactive
Cc1cc(C(F)(F)F)c(C#N)c(SCC(=O)NC(C)(C)C)n1	inconclusive: 0.0033 µM [inhibitor, full curve, poor fit]
O=C(CC12CC3CC(CC(C3)C1)C2)NC(=S)N1CCCCC1	active: 9.28 µM
O=S(=O)(CCn1cccc1)CCn1cccc1	inconclusive: 7.38 µM [inhibitor, single point]
Cc1ccc(O)c(C(=O)c2cnc3c(c2)COc2ccccc2-3)c1	inconclusive: 18.5 µM [inhibitor, single point]
CCC(C)NC(=O)c1ccccc1SC (stereo unspecified)	inconclusive: 11.7 µM [inhibitor, single point]
CC(C)CCNC(=O)c1cc([N+](=O)[O-])ccc1N1CCOCC1	inactive
COc1ccc(NC(=O)c2cc3ccccc3o2)cc1	inconclusive: 10.4 µM [inhibitor, single point]
COc1cccc(CNc2ccc(C)c(Cl)c2)c1	inconclusive: 9.28 µM [inhibitor, partial curve, poor fit]
COc1ccc(CNC(=O)CCC(=O)c2ccc(C)cc2)cc1OC	inconclusive: 18.5 µM [inhibitor, single point]

SMILES	Potency
CC(=O)NCCc1ccc(S(=O)(=O)Nc2ccc(C)c(S(=O)(=O)N3CCOCC3)c2)cc1	inconclusive: 18.5 µM [inhibitor, single point]
CCOc1ccc(C(=O)N2CCN(c3ccccn3)CC2)cc1	inactive
COc1ccc(C2N(c3cc(Cl)ccc3OC)C(=O)C3CCCN32)cc1 (stereo unspecified)	inconclusive: 10.4 µM [inhibitor, single point]
CCC(=NCCc1c[nH]c2ccccc12)c1c(O)n(-c2ccc(C)cc2)c(=O)[nH]c1=O	inconclusive: 13.1 µM [inhibitor, partial curve, poor fit]
O=C(NCc1ccccc1)/C(=C/c1ccc(OC(F)F)cc1)c1ccccc1	inconclusive: 18.5 µM [inhibitor, single point]
CCN(CC)CCN(C)Cc1ccc(Br)cc1	inconclusive: 18.5 µM [inhibitor, single point]
CCOC(=O)c1ccc(NC(=O)CSCc2ccco2)cc1	inconclusive: 16.5 µM [inhibitor, single point]
C=CCN(Cc1nc(-c2cc(OC)ccc2OC)oc1C)C1CCS(=O)(=O)C1 (stereo unspecified)	inactive
Cc1ccc(C2CCN(C(=O)Nc3ccc(F)cc3)C2)cc1 (stereo unspecified)	inconclusive: 2.62 µM [inhibitor, full curve, poor fit]
OC(COC(c1ccccc1)c1ccccc1)CN1CCCCC1 (stereo unspecified)	inconclusive: 10.4 µM [inhibitor, partial curve, poor fit]
Cc1ccc(C(=O)N2CC(=O)Nc3ccc(F)cc3C2c2ccc(F)cc2)cc1 (stereo unspecified)	active: 1.47 µM
COc1ccc(CCN2C(=O)c3[nH]nc(-c4ccccc4O)c3C2c2ccccc2)cc1OC (stereo unspecified)	active: 8.28 µM
O=C(CN1CCN(c2ccccc2O)CC1)Nc1ccc2c(c1)CCC2	inconclusive: 18.5 µM [inhibitor, single point]
COC(=O)/C(=C\Nc1ccc(Cl)cc1Cl)NC(=O)c1ccc(Cl)cc1Cl	inactive
CN1C(=O)OC(C)(C)C1=O	inactive
CS(=O)(=O)N(CC(=O)N1CCCC1)c1ccc(Cl)cc1	inconclusive: 9.28 µM [inhibitor, partial curve]
O=C(NCCCNC(=O)c1cc(Cl)ccc1Cl)c1ccco1	inactive
CCCc1cc(C(=O)NCc2ccc(OC)cc2)no1	inactive
COc1ccc(CN(CC(=O)NCc2ccccc2)C(=O)CCC(=O)Nc2ccccn2)cc1	inactive
Cc1cc(O)c(NC(=O)c2cc([N+](=O)[O-])ccc2Cl)cc1C	inactive
CC(C)NC(=O)CSc1nc2ccccc2n1CC(=O)N(C(C)C)C(C)C	active: 4.15 µM
COC(=O)c1ccc(NC(=O)C(=O)N2CCN(C(=S)Nc3cccc(C)c3C)CC2)cc1	active: 0.465 µM
NCCCC[C@H](N)c1nnc([C@H](CCC(=O)O)NC(=O)C2CCNCC2)o1	inactive
C=CCOc1ccc(CN(C)C(=O)c2ccc(CNS(=O)(=O)c3ccc(C)c(C)c3)cc2)cc1	inconclusive: 9.28 µM [inhibitor, partial curve, poor fit]

Single entries from the list.
For Potency, Cc1cc(O)c(NC(=O)c2cc([N+](=O)[O-])ccc2Cl)cc1C has the entry inactive
For Potency, COc1ccc(CN(CC(=O)NCc2ccccc2)C(=O)CCC(=O)Nc2ccccn2)cc1 has the entry inactive
For Potency, COc1ccc(CCN2C(=O)c3[nH]nc(-c4ccccc4O)c3C2c2ccccc2)cc1OC (stereo unspecified) has the entry active: 8.28 µM
For Potency, CCOC(=O)c1ccc(NC(=O)CSCc2ccco2)cc1 has the entry inconclusive: 16.5 µM [inhibitor, single point]
For Potency, NCCCC[C@H](N)c1nnc([C@H](CCC(=O)O)NC(=O)C2CCNCC2)o1 has the entry inactive
For Potency, CCCc1cc(C(=O)NCc2ccc(OC)cc2)no1 has the entry inactive

Continuation.

SMILES	Potency
COc1ccc(C2(CNC(=O)c3ccc(OC)c([N+](=O)[O-])c3)CCCCC2)cc1OC	inconclusive: 3.29 µM [inhibitor, full curve, poor fit]
O=c1nc(-c2ccccc2)c2cc(SC(F)F)ccc2[nH]1	inactive
COc1ccccc1N(Cc1ccccc1)S(=O)(=O)c1cccc(C(=O)Nc2cccc(C)n2)c1	inconclusive: 4.65 µM [inhibitor, partial curve]
CCCn1c(=O)n(C)c(=O)c2c(SCC(=O)NCc3ccco3)nc(C3CC3)nc21	active: 4.15 µM
CCc1ccc(C2=CSC3=NCCN23)cc1	inactive
CCn1c(N2CCN(S(=O)(=O)c3ccccc3)CC2)nc2ccccc21	inconclusive: 10.4 µM [inhibitor, single point]
N/C(=N\OC(=O)c1ccc(F)cc1)c1ccccc1	active: 10.4 µM
CC1CCc2cc(F)ccc2N1C(=O)CSc1nnc2c(n1)[nH]c1ccccc12 (stereo unspecified)	inconclusive: 5.22 µM [inhibitor, partial curve, poor fit]
Cc1ccc(Nc2nnc(SCC3CCCCO3)s2)cc1 (stereo unspecified)	inconclusive: 4.65 µM [inhibitor, partial curve]
Cc1ccc2nc(NC(=O)C3CCN(S(=O)(=O)c4cccnc4)CC3)sc2c1	inactive
COc1ccc(Cn2nnnc2C(c2cccs2)N2CCN(c3ccc([N+](=O)[O-])cc3)CC2)cc1 (stereo unspecified)	inconclusive: 9.28 µM [inhibitor, partial curve, poor fit]
N#Cc1ccc(N2Cc3ccccc3C2=NC(=O)c2cccnc2Cl)cc1	inactive
CC(C)Cc1nnc(NC(=O)CCC(=O)N2CCN(c3ccc([N+](=O)[O-])cc3)CC2)s1	inconclusive: 6.57 µM [inhibitor, partial curve]
O=C(O)c1cccc(-n2cccc2C=C2C(=O)c3ccccc3C2=O)c1	inconclusive: 18.5 µM [inhibitor, single point]
O=S(=O)(c1ccccc1)n1ccc(-c2cnc(-c3ccccc3)s2)n1	inactive
CCCn1ncc(/C=N/O)c1C	inactive
O=[N+]([O-])c1cc(Cl)ccc1N1CCCC1	inactive
Cc1cc(C)nc(NS(=O)(=O)c2ccc(NC(=O)C3(c4ccc([N+](=O)[O-])cc4)CCCC3)cc2)n1	active: 9.28 µM
O=C1c2ccccc2C(=O)N1CCn1ccnc1	inconclusive: 11.7 µM [inhibitor, single point]
Cc1ccc(CN2CCNC(=O)C2CC(=O)O)o1 (stereo unspecified)	inactive
CCOC(=O)N1CCN(C(=O)CNC(=O)c2nn(-c3ccc(OC)cc3)c(=O)c3ccccc23)CC1	inactive
O=C(c1ccco1)N1CCN(C(=O)c2oc(=O)c3ccccc3c2-c2ccccc2)CC1	inactive
CC(=O)c1ccc(NC(=O)c2cccc(S(=O)(=O)N3CCN(C)CC3)c2)cc1	inconclusive: 9.28 µM [inhibitor, partial curve]

Source: PubChem BioAssay AID504834 (National Center for Advancing Translational Sciences (NCATS), 2011)
